## Library screening results

Amino acid sequences for entries named in this document (tags omitted).
UniProt E9BF75, entry or part of it: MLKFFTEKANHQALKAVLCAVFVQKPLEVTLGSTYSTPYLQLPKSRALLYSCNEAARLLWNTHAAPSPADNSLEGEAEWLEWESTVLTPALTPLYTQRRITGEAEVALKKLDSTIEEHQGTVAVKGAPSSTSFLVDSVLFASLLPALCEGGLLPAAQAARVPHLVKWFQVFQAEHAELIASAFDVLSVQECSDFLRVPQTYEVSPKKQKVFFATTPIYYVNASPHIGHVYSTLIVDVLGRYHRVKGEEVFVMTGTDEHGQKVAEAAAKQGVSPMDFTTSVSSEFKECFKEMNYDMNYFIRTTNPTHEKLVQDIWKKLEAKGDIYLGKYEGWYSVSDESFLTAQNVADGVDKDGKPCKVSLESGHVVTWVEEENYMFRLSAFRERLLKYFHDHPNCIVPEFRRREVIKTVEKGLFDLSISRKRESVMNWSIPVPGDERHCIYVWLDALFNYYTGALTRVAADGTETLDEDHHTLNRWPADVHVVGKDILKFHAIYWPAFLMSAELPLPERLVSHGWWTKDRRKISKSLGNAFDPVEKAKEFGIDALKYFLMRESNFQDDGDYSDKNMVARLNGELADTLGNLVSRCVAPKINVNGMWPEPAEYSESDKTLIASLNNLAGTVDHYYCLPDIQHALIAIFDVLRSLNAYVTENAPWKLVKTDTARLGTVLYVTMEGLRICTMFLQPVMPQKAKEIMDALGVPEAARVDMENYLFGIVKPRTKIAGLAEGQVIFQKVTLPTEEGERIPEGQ

The values are deposited in ChEMBL (CHEMBL3988442, “University of Dundee, Small-Polar-MMV Screening Library” (2021)).

Mtb heat-shock: 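Assay on Mycobacterium tuberculosis, filed only as a heat shock assay from Cornell; the read-out is not stated. The concentration is filed as 10 mM, unlikely as a test dose, so the dose is not known. Higher reads as stronger inhibition (inferred: compounds with an IC50 in retests scored well above the rest). Of about 69,000 compounds tested this way, about 930 (1.4%) reached 50% or more in at least one test.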
Mtb growth Cornell: 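Whole-cell assay for inhibitors of Mycobacterium tuberculosis growth, labelled Cornell in the record; the read-out is not stated. The concentration is filed as 10 mM, unlikely as a test dose, so the dose is not known. The record gives no direction; compounds strong in two other growth screens of this library score well above the rest, so higher reads as stronger inhibition. Of about 53,000 compounds tested this way, about 900 (1.7%) reached 50% or more in at least one test.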
LdMetRS: 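Methionyl-tRNA synthetase (putative), Leishmania donovani (UniProt E9BF75). Primary screen of methionyl-tRNA synthetase; the read-out is not stated. The test concentration is not given. The values are filed as inhibition. Size under these conditions: about 68,000 compounds, about 24 of them at 50% or above in at least one test.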

All values are in %. The record does not define 0% and 100%; most values in the screen are far below 50% and negative numbers occur (in some assays of this library far below -100). The compounds are a random part of those screened. A dash means the value is not listed here; it may have been measured.

SMILES,Mtb heat-shock,Mtb growth Cornell,LdMetRS
Cc1ccc(OC2(C(=O)O)CCN(C(=O)c3cc(C)oc3C)CC2)cn1,25.75,-,13.19
CCN1Cc2ccccc2CC2(CCN(C(=O)N(C)C)CC2)C1=O,38,4.868,14.75
CCc1c(C(=O)N2CCN(c3cnccn3)CC2)cnn1C(C)(C)C,-10.66,-,7.955
COCCCNC(=O)c1cc(-c2ccc(OC)cc2)nn1C,20.31,45.12,12.13
COCCC(=O)NC1CCN(CC2(c3cccc(F)c3)CCCC2)CC1,-,-,12.9
Cc1sc2c(C3CCCN(S(C)(=O)=O)C3)nc(C)n2c1C (stereo unspecified),0.2057,-7.788,16.08
CC(=O)NC1CCCN(C(=O)NCc2ccc(-n3cccn3)cc2)C1 (stereo unspecified),-10.18,19.27,18.79
Cc1ccc(CN2CC3(CCNCC3)CCC2=O)c(F)c1F,-40.55,2.309,5.928
COc1cc(CNC(=O)Nc2nnc(C(F)(F)F)s2)ccc1O,4.112,5.392,15.16
CCN1CCC2(CCN(Cc3nccs3)CC2)C1=O,-,-,12.05
CSCCCNC(=O)Nc1cccc(-c2nccn2C)c1,5.004,26.34,12.39
Cc1nnc(SCC(=O)c2cc3c(cc2Cl)NC(=O)C3)s1,22.31,21.14,14.58
[H][C@@]12COC[C@]1(COCc1cccnc1)CN(C(=O)c1csc(C)n1)C2,-11.75,21.64,-
CN(C)C(=O)CC1CC2(CCN(Cc3ccsc3)CC2)c2ccccc21.O=C(O)C(F)(F)F (stereo unspecified),-34.9,9.185,-
CCOCC1CC2(CCN(C(=O)CC3=CCCCC3)CC2)CO1 (stereo unspecified),-5.424,-1.98,11.23
CN1CCN(C(=O)Cc2csc(-c3ccsc3)n2)C(c2ccccc2)C1 (stereo unspecified),8.235,14.77,11.42
CCOC(=O)c1nc(CC(=O)Nc2ccccc2)no1,17.29,49.64,9.382
CC(=O)N1CCN(C(=O)NC(C)Cn2ccnc2)CC1 (stereo unspecified),5.904,2.252,12.01
Cc1ccc(CN2CC[C@@H](N3CCOCC3)[C@@H]2Cc2cccnc2)o1.O=C(O)C(F)(F)F.O=C(O)C(F)(F)F.O=C(O)C(F)(F)F,-10.86,16.63,-
O=C(c1ccc(Cl)cc1)N1CCn2c(nn(-c3cccc(Cl)c3)c2=O)C1,5.869,-,2.286
CC(CO)CN(Cc1ccccc1)C(=O)c1csc(CN(C)C)n1 (stereo unspecified),11.81,-55.71,7.161
O=C(c1ccc[nH]1)N1CCOCC12CCCC2,-13.85,-33.44,12.32
O=C(O)C(F)(F)F.O=C(O)C(F)(F)F.O=C(O)C(F)(F)F.[H][C@@]12C[C@@H](Oc3cccnc3)CN1CCN(Cc1cccc(C)n1)C2,-27.52,13.01,-
[H][C@@]12CCCO[C@]1([H])[C@H](N1CCCC1=O)CN2Cc1cnn(C)c1,-12.68,13.66,-
CCC(C)NS(=O)(=O)c1ccc(C(=O)NC2(C#N)CCC2)cc1 (stereo unspecified),-13.03,-40.81,10.42
CC(C)c1noc(CN2CCC(C3CCCCCN3S(C)(=O)=O)CC2)n1.Cl (stereo unspecified),-8.048,9.148,-
O=C(C1CC(=O)N(c2ccccc2Br)C1)N1CCN(CC(F)(F)F)CC1 (stereo unspecified),-13.94,2.07,11.54
Nc1c(N2CCCC2)ncnc1N1CCOCC1,-22.7,-27.74,1.389
CCC1CCCCN1C(=O)Cn1cnc(C#N)n1 (stereo unspecified),-2.691,20.94,5.167
CC(NCc1c(C(C)C)nn(C)c1N1CCOCC1)C(=O)N(C)C (stereo unspecified),-7.946,-,10.72
Cc1cnn(CCCNC2Cc3ccccc3C2)c1,6.523,-,12.22
Oc1cc(C2CCCCN2Cc2cccs2)nc(-c2ccccn2)n1 (stereo unspecified),103.7,21.14,14.53
O=C(c1ncoc1C1CCCO1)N1CCC2(CCCCC2)CC1 (stereo unspecified),3.688,14.58,4.61
Cc1ncsc1C(=O)N(Cc1ccccn1)C1CC1,-0.4921,-,8.728
CCOCCc1nc(CCc2ccccc2)n[nH]1,7.583,-,13.2
Cc1nc(CN2CCC3(CCCN(Cc4ccncc4)C3)C2=O)cs1.O=C(O)C(F)(F)F.O=C(O)C(F)(F)F.O=C(O)C(F)(F)F (stereo unspecified),-7.43,4.348,-
Cc1ccc(C)c(NC(=O)c2n[nH]c(-n3cnnc3)n2)c1,11.55,-,16.18
CCc1nc(CN2CC[C@@](O)(CCOC)[C@H](C)C2)cs1,-26.6,4.694,5.516
Cc1ccc(C(CCNCCN(C)C)C2CCOC(C)(C)C2)cc1.O=C(O)C(=O)O (stereo unspecified),1.762,7.867,-
NCC1CCC(c2c(C(=O)NCCO)sc3ccccc23)CC1 (stereo unspecified),-,-,10.5
CC1CCN(c2ccc3c(-c4ncc(C(=O)O)s4)noc3c2)CC1,-1.483,15.41,16.67
CCc1c(C(=O)NCC2CCS(=O)(=O)C2)cnn1-c1ccc(C)cc1 (stereo unspecified),13.53,10.27,6.103
Cc1nnc2n1CCN(C(=O)c1ccn(-c3cccc(F)c3)n1)C2,-15.66,19.4,16.56
C[C@H]1CN(C(=O)c2cccc(F)c2Cl)CCN1S(C)(=O)=O,-11.47,-3.279,12.57

Some entries from above, unchanged:

| SMILES | Mtb heat-shock | Mtb growth Cornell | LdMetRS |
|---|---|---|---|
| `Cc1nnc(SCC(=O)c2cc3c(cc2Cl)NC(=O)C3)s1` | 22.31 | 21.14 | 14.58 |
| `CCC1CCCCN1C(=O)Cn1cnc(C#N)n1` (stereo unspecified) | -2.691 | 20.94 | 5.167 |
| `Cc1ccc(C(CCNCCN(C)C)C2CCOC(C)(C)C2)cc1.O=C(O)C(=O)O` (stereo unspecified) | 1.762 | 7.867 | - |
| `CC(=O)N1CCN(C(=O)NC(C)Cn2ccnc2)CC1` (stereo unspecified) | 5.904 | 2.252 | 12.01 |